Publication PMC9616960
No constants are given. Whether binding was seen depends on the method and setting. Binding seen in cells or lysates may run through a third protein. Here binding means that the protein was enriched with, or labelled near, the bait; the list need not be complete. For part of these data: Where a sequence is shown, tags or fusion partners need not be part of it. Blank lines part the entries; values can stand above or below the binder they belong to.

What was measured:
[1] = target: T1, Nephrin (not stated (endogenous in glomeruli of rat or mouse)) (UniProt Q9R044); test: affinity purification with mass spectrometry; three anti-Nephrin/Neph1 ABs immobilised on magnetic beads, two hours with CL-47 or CL-91 solubilisates of glomerular membrane fractions; eluates by nano-LC-MS/MS; specific: tnR >=0.2 against three target-unrelated ABs/IgG, in at least two anti-Nephrin/Neph1 APs
T1 sequence: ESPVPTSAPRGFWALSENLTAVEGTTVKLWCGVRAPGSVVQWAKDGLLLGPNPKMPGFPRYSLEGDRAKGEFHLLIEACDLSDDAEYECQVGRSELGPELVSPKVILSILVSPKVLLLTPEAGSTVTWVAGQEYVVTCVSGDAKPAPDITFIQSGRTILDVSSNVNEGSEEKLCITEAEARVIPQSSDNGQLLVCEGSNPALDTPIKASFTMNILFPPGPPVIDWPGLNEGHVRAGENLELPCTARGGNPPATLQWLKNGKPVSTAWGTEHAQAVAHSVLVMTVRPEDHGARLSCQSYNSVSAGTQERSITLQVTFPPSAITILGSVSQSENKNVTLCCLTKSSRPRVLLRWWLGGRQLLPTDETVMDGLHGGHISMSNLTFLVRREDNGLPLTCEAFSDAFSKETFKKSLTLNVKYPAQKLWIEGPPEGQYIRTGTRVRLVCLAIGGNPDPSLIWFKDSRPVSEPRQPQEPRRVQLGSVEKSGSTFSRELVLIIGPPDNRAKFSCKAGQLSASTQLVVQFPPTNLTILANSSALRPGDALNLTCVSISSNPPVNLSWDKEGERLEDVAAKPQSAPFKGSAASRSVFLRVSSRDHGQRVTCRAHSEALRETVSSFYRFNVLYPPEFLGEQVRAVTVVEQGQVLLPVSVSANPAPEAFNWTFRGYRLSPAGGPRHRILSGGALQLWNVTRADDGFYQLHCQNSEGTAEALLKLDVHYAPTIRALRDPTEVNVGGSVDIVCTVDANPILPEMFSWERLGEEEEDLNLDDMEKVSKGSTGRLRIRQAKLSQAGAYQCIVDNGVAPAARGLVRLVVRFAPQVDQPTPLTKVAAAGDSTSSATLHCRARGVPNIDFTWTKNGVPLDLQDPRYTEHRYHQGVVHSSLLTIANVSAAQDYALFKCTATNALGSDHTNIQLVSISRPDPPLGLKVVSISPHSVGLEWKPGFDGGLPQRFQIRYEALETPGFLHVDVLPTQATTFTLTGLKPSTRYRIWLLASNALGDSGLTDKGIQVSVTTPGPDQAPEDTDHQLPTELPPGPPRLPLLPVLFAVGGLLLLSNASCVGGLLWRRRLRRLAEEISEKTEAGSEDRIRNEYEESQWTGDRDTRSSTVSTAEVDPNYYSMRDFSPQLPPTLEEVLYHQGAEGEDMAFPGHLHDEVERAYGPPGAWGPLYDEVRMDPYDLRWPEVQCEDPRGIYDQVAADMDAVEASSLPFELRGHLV

[2] = target: T2, Neph1 (not stated (endogenous in glomeruli of rat or mouse)) (UniProt Q6X936); test: as above
T2 sequence: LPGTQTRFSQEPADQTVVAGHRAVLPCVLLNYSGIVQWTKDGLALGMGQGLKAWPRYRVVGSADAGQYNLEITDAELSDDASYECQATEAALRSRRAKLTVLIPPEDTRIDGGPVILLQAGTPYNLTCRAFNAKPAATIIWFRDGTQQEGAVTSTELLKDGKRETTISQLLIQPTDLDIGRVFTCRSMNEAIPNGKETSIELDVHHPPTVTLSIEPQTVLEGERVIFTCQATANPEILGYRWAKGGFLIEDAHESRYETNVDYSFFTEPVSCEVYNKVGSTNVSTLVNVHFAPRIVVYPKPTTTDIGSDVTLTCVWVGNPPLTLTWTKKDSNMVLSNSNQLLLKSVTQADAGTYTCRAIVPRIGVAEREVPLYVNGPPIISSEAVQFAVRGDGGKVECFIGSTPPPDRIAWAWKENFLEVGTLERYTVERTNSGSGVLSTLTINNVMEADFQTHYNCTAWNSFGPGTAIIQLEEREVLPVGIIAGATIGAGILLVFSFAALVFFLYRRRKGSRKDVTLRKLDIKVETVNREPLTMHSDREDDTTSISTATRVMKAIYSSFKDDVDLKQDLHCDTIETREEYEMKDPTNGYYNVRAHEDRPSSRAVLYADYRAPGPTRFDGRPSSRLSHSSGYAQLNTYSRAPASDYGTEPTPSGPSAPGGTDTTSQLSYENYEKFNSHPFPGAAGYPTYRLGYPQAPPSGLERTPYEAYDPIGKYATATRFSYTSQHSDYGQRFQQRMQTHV

[3] = target: T3, Podocin (mouse (endogenous in mouse glomeruli)) (UniProt Q91X05); test: affinity purification with mass spectrometry; two anti-Podocin ABs immobilised on magnetic beads, two hours with CL-47 or CL-91 solubilisates of glomerular membrane fractions of wildtype mice; control: Podocin knockout mice; eluates by nano-LC-MS/MS; specific: tnR >0.25 with both ABs in either of two solubilisation conditions
T3 sequence: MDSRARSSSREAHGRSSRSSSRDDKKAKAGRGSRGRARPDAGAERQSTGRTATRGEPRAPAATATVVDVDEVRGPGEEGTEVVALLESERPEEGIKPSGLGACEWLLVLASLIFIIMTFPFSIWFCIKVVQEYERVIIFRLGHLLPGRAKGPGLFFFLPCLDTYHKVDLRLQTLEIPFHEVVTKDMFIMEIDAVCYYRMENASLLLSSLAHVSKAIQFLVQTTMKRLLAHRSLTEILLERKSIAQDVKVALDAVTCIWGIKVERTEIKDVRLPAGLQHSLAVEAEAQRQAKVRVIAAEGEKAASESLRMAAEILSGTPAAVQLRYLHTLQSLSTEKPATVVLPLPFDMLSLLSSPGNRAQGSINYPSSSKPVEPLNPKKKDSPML

binding [1]: binds
binding [2]: binds
B1: N-acetyl-glucosaminyl-transferase V (protein, UniProt Q08834 1-740)
chain: MAFFSPWKLSSQKLGFFLVTFGFIWGMMLLHFTIQQRTQPESSSMLREQILDLSKRYIKALAEENRNVVDGPYAGVMTAYDLKKTLAVLLDNILQRIGKLESKVDNLVNGTGANSTNSTTAVPSLVSLEKINVADIINGVQEKCVLPPMDGYPHCEGKIKWMKDMWRSDPCYADYGVDGTSCSFFIYLSEVENWCPRLPWRAKNPYEEADHNSLAEIRTDFNILYGMMKKHEEFRWMRLRIRRMADAWIQAIKSLAEKQNLEKRKRKKILVHLGLLTKESGFKIAETAFSGGPLGELVQWSDLITSLYLLGHDIRISASLAELKEIMKKVVGNRSGCPTVGDRIVELIYIDIVGLAQFKKTLGPSWVHYQCMLRVLDSFGTEPEFNHASYAQSKGHKTPWGKWNLNPQQFYTMFPHTPDNSFLGFVVEQHLNSSDIHHINEIKRQNQSLVYGKVDSFWKNKKIYLDIIHTYMEVHATVYGSSTKNIPSYVKNHGILSGRDLQFLLRETKLFVGLGFPYEGPAPLEAIANGCAFLNPKFNPPKSSKNTDFFIGKPTLRELTSQHPYAEVFIGRPHVWTVDLNNREEVEDAVKAILNQKIEPYMPYEFTCEGMLQRINAFIEKQDFCHGQVMWPPLSALQVKLAEPGQSCKQVCQESQLICEPSFFQHLNKEKDLLKYKVICQSSELYKDILVPSFYPKSKHCVFQGDLLLFSCAGAHPTHQRICPCRDFIKGQVALCKDCL

binding [3]: binds
B2: R-PTP-O (protein, UniProt E9Q612 30-1226)
chain: FHVAVQDDNNIVVSLEASDIVSPASVYVVRVAGESKNYFFEFEEFNSTLPPPVVFKATYHGLYYIITLVVVNGNVVTKPSRSITVLTKPLPVTSVSIYDYKPSPETGVLFEIHYPEKYNVFSRVNISYWEGRDFRTMLYKDFFKGKTVFNHWLPGLCYSNITFQLVSEATFNKSTLVEYSGVSHEPKQHRTAPYPPRNISVRFVNLNKNNWEEPSGSFPEDSFIKPPQDSIGRDRRFHFPEETPETPPSNVSSGSPPSNVSSAWPDPNSTDYESTSQPFWWDSASAAPENEEDFVSALPADYDTETTLDRTEKPTADPFSAFPVQMTLSWLPPKPPTAFDGFNILIEREENFTDYLTVDEEAHEFVAELKEPGKYKLSVTTFSSSGACETRKSQSAKSLSFYISPTGEWIEELTEKPQHVSVHVLSSTTALMSWTSSQENYNSTIVSVVSLTCQKQKESQRLEKQYCTQVNSSKPVIENLVPGAQYQVVMYLRKGPLIGPPSDPVTFAIVPTGIKDLMLYPLGPTAVVLSWTRPILGVFRKYVVEMFYFNPTTMTSEWTTYYEIAATVSLTASVRIASLLPAWYYNFRVTMVTWGDPELSCCDSSTISFITAPVAPEITSVEYFNSLLYISWTYGDATTDLSHSRMLHWMVVAEGRKKIKKSVTRNVMTAILSLPPGDIYNLSVTACTERGSNTSLPRLVKLEPAPPKSLFAVNKTQTSVTLLWVEEGVADFFEVFCQQLGSGHNGKLQEPVAVSSHVVTISSLLPATAYNCSVTSFSHDTPSVPTFIAVSTMVTEVNPNVVVISVLAILSTLLIGLLLVTLVILRKKHLQMARECGAGTFVNFASLEREGKLPYSWRRSVFALLTLLPSCLWTDYLLAFYINPWSKNGLKKRKLTNPVQLDDFDSYIKDMAKDSDYKFSLQFEELKLIGLDIPHFAADLPLNRCKNRYTNILPYDFSRVRLVSMNEEEGADYINANYIPGYNSPQEYIATQGPLPETRNDFWKMVLQQKSHIIVMLTQCNEKRRVKCDHYWPFTEEPIAYGDITVEMVSEEEEEDWASRHFRINYADEAQDVMHFNYTAWPDHGVPPANAAESILQFVFTVRQQAAKSKGPMIIHCSAGVGRTGTFIALDRLLQHIRDHEFVDILGLVSEMRSYRMSMVQTEEQYIFIHQCVQLMWLRKKQQFCISDVIYENVSKS

binding [1]: binds
binding [2]: binds
B3: Erlin-2 (protein, UniProt B5DEH2 1-339)
chain: MAQLGAVVAVASSFFCASLFSAVHKIEEGHIGVYYRGGALLTSTSGPGFHLMLPFITSYKSVQTTLQTDEVKNVPCGTSGGVMIYFDRIEVVNFLVPHAVYDIVKNYTADYDKALIFNKIHHELNQFCSVHTLQEVYIELFDQIDENLKLALQQDLTSMAPGLVIQAVRVTKPNIPEAIRRNYELMESEKTKLLIAAQKQKVVEKEAETERKKALIEAEKVAQVAEITYGQKVMEKETEKKISEIEDAAFLAREKAKADAECYTALKIAEANKLKLTPEYLQLMKYKAIASNSKIYFGKDIPNMFMDSAGGLGKQSEGLSDKLGFGLEDEPLETATKDN

binding [3]: binds
B4: tyrosine kinase Mer (protein, UniProt Q60805 19-994)
chain: GGTAEKWEETELDQLFSGPLPGRLPVNHRPFSAPHSSRDQLPPPQTGRSHPAHTAAPQVTSTASKLLPPVAFNHTIGHIVLSEHKNVKFNCSINIPNTYQETAGISWWKDGKELLGAHHSITQFYPDEEGVSIIALFSIASVQRSDNGSYFCKMKVNNREIVSDPIYVEVQGLPYFIKQPESVNVTRNTAFNLTCQAVGPPEPVNIFWVQNSSRVNEKPERSPSVLTVPGLTETAVFSCEAHNDKGLTVSKGVHINIKVIPSPPTEVHILNSTAHSILVSWVPGFDGYSPLQNCSIQVKEADRLSNGSVMVFNTSASPHLYEIQQLQALANYSIAVSCRNEIGWSAVSPWILASTTEGAPSVAPLNITVFLNESNNILDIRWTKPPIKRQDGELVGYRISHVWESAGTYKELSEEVSQNGSWAQIPVQIHNATCTVRIAAITKGGIGPFSEPVNIIIPEHSKVDYAPSSTPAPGNTDSMFIILGCFCGFILIGLILCISLALRRRVQETKFGGAFSEEDSQLVVNYRAKKSFCRRAIELTLQSLGVSEELQNKLEDVVIDRNLLVLGKVLGEGEFGSVMEGNLKQEDGTSQKVAVKTMKLDNFSQREIEEFLSEAACMKDFNHPNVIRLLGVCIELSSQGIPKPMVILPFMKYGDLHTFLLYSRLNTGPKYIHLQTLLKFMMDIAQGMEYLSNRNFLHRDLAARNCMLRDDMTVCVADFGLSKKIYSGDYYRQGRIAKMPVKWIAIESLADRVYTSKSDVWAFGVTMWEITTRGMTPYPGVQNHEMYDYLLHGHRLKQPEDCLDELYDIMYSCWSADPLDRPTFSVLRLQLEKLSESLPDAQDKESIIYINTQLLESCEGIANGPSLTGLDMNIDPDSIIASCTPGAAVSVVTAEVHENNLREERYILNGGNEEWEDVSSTPFAAVTPEKDGVLPEDRLTKNGVSWSHHSTLPLGSPSPDELLFVDDSLEDSEVLM
